# Data from the supplement of paper PMC8728848.
# Some of the results follow.
# B1: SUN4P (Saccharomyces cerevisiae), P53616 (protein)
# chain: MGSSHHHHHHSSGLVPRGSHNGSIYGDLADFSGPYEKFEDGTIPCGQFPSGQGVIPISWLDEGGWSGVENTDTSTGGSCKEGSYCSYACQPGMSKTQWPSDQPSDGRSIGGLLCKDGYLYRSNTDTDYLCEWGVDAAYVVSELSNDVAICLTDYPGTENMVIPTYVQAGDSLPLTVVDQDTYYTWQGLKTSAQYYVNNAGISVEDACVWGSSSSGVGNWAPLNFGAGSSDGVAYLSLIPNPNNGNALNFNVKIVAADDSSTVNGECIYENGSFSGGSDGCTVSVTAGKAKFVLYN
# How the values were obtained:
# Assay in all cases: glycan array binding signal (z-score within array); higher = stronger binding
# Details in all cases: glycan notation: IUPAC condensed, linker removed; mutation: R276L
# [1] = target: GlcNAc(b1-3)Gal(b1-4)GlcNAc(b1-3)Gal(b1-4)GlcNAc(b1-3)Gal(b1-4)GlcNAc(b1-3)Gal(b1-4)GlcNAc(b1-2)[GlcNAc(b1-3)Gal(b1-4)GlcNAc(b1-3)Gal(b1-4)GlcNAc(b1-3)Gal(b1-4)GlcNAc(b1-3)Gal(b1-4)GlcNAc(b1-6)]Man(a1-6)[GlcNAc(b1-3)Gal(b1-4)GlcNAc(b1-3)Gal(b1-4)GlcNAc(b1-3)Gal(b1-4)GlcNAc(b1-3)Gal(b1-4)GlcNAc(b1-2)Man(a1-3)]Man(b1-4)GlcNAc(b1-4)[Fuc(a1-6)]GlcNAc
# Procedure, shortened: (§1)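 The Consortium for Functional Glycomics database supplied 3228 glycan arrays, of which those lacking an available protein sequence were dropped. The binding signal, a within-array Z-score, was averaged across arrays of the same protein sequence and across linkers. Negative scores can be read as non-binding.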
# [2] = target: GlcNAc(b1-3)Gal(b1-4)GlcNAc(b1-3)Gal(b1-4)GlcNAc(b1-3)GalNAc
# Procedure, shortened: as §1
# [3] = target: GlcNAc(b1-3)Gal(b1-4)GlcNAc(b1-3)GalNAc
# Procedure, shortened: as §1
# [4] = target: GlcNAc(b1-3)Gal(b1-4)GlcNAc(b1-3)[GlcNAc(b1-3)Gal(b1-4)GlcNAc(b1-3)]GalNAc
# Procedure, shortened: as §1
# [5] = target: GlcNAc(b1-3)Gal(b1-4)GlcNAc(b1-6)[Gal(b1-3)]GalNAc
# Procedure, shortened: as §1
# [6] = target: GlcNAc(b1-3)Gal(b1-4)GlcNAc(b1-6)[GlcNAc(b1-3)Gal(b1-3)]GalNAc
# Procedure, shortened: as §1
# [7] = target: GlcNAc(b1-3)Gal(b1-4)GlcNAc(b1-6)[GlcNAc(b1-3)]Gal(b1-4)GlcNAc
# Procedure, shortened: as §1
# GlcNAc(b1-3)GalNAc = target: GlcNAc(b1-3)GalNAc
# Procedure, shortened: as §1
# GlcNAc(b1-3)Man = target: GlcNAc(b1-3)Man
# Procedure, shortened: as §1
# [8] = target: GlcNAc(b1-3)[GlcNAc(b1-4)][GlcNAc(b1-6)]GlcNAc
# Procedure, shortened: as §1
# [9] = target: GlcNAc(b1-3)[GlcNAc(b1-6)]Gal(b1-4)GlcNAc
# Procedure, shortened: as §1
# [10] = target: GlcNAc(b1-3)[GlcNAc(b1-6)]GalNAc
# Procedure, shortened: as §1
# [11] = target: GlcNAc(b1-4)Gal(b1-4)GlcNAc
# Procedure, shortened: as §1
# GlcNAc(b1-4)GlcNAc = target: GlcNAc(b1-4)GlcNAc
# Procedure, shortened: as §1
# [12] = target: GlcNAc(b1-4)GlcNAc(b1-4)GlcNAc
# Procedure, shortened: as §1
# [13] = target: GlcNAc(b1-4)GlcNAc(b1-4)GlcNAc(b1-4)GlcNAc(b1-4)GlcNAc
# Procedure, shortened: as §1
# [14] = target: GlcNAc(b1-4)GlcNAc(b1-4)GlcNAc(b1-4)GlcNAc(b1-4)GlcNAc(b1-4)GlcNAc
# Procedure, shortened: as §1
# [15] = target: GlcNAc(b1-4)[GlcNAc(b1-6)]GalNAc
# Procedure, shortened: as §1
# [16] = target: GlcNAc(b1-6)Gal(b1-4)GlcNAc
# Procedure, shortened: as §1
# GlcNAc(b1-6)GalNAc = target: GlcNAc(b1-6)GalNAc
# Procedure, shortened: as §1
# [17] = target: GlcNAc6S(b1-3)Gal(b1-4)GlcNAc
# Procedure, shortened: as §1
# Kdn(a2-3)Gal(b1-3)GalNAc = target: Kdn(a2-3)Gal(b1-3)GalNAc
# Procedure, shortened: as §1
# Kdn(a2-3)Gal(b1-3)GlcNAc = target: Kdn(a2-3)Gal(b1-3)GlcNAc
# Procedure, shortened: as §1
# Kdn(a2-3)Gal(b1-4)Glc = target: Kdn(a2-3)Gal(b1-4)Glc
# Procedure, shortened: as §1
# Kdn(a2-3)Gal(b1-4)GlcNAc = target: Kdn(a2-3)Gal(b1-4)GlcNAc
# Procedure, shortened: as §1
# [18] = target: Kdn(a2-3)Gal(b1-4)[Fuc(a1-3)]GlcNAc
# Procedure, shortened: as §1
# Kdn(a2-6)Gal(b1-4)GlcNAc = target: Kdn(a2-6)Gal(b1-4)GlcNAc
# Procedure, shortened: as §1
# [19] = target: Man(a1-2)Man(a1-2)Man(a1-3)Man
# Procedure, shortened: as §1
# [20] = target: Man(a1-2)Man(a1-2)Man(a1-6)[Man(a1-3)]Man
# Procedure, shortened: as §1
# Man(a1-2)Man(a1-3)Man = target: Man(a1-2)Man(a1-3)Man
# Procedure, shortened: as §1
# [21] = target: Man(a1-2)Man(a1-3)[Man(a1-2)Man(a1-6)]Man
# Procedure, shortened: as §1
# [22] = target: Man(a1-2)Man(a1-3)[Man(a1-2)Man(a1-6)]Man(a1-6)[Man(a1-2)Man(a1-2)Man(a1-3)]Man
# Procedure, shortened: as §1
# [23] = target: Man(a1-2)Man(a1-3)[Man(a1-2)Man(a1-6)]Man(a1-6)[Man(a1-2)Man(a1-2)Man(a1-3)]Man(b1-4)GlcNAc(b1-4)GlcNAc
# Procedure, shortened: as §1
# [24] = target: Man(a1-2)Man(a1-3)[Man(a1-6)]Man(a1-6)[Man(a1-2)Man(a1-3)]Man(b1-4)GlcNAc(b1-4)GlcNAc
# Procedure, shortened: as §1
# [25] = target: Man(a1-2)Man(a1-6)[Man(a1-3)]Man(a1-6)[Man(a1-2)Man(a1-2)Man(a1-3)]Man
# Procedure, shortened: as §1
# [26] = target: Man(a1-2)Man(a1-6)[Man(a1-3)]Man(a1-6)[Man(a1-2)Man(a1-2)Man(a1-3)]Man(b1-4)GlcNAc(b1-4)GlcNAc
# Procedure, shortened: as §1
# Man(a1-3)[Man(a1-6)]Man = target: Man(a1-3)[Man(a1-6)]Man
# Procedure, shortened: as §1
# [27] = target: Man(a1-3)[Man(a1-6)]Man(a1-6)[Man(a1-2)Man(a1-3)]Man(b1-4)GlcNAc(b1-4)GlcNAc
# Procedure, shortened: as §1
# [28] = target: Man(a1-3)[Man(a1-6)]Man(a1-6)[Man(a1-3)]Man
# Procedure, shortened: as §1
# [29] = target: Man(a1-3)[Man(a1-6)]Man(a1-6)[Man(a1-3)]Man(b1-4)GlcNAc(b1-4)GlcNAc
# Procedure, shortened: as §1
# [30] = target: Man(a1-3)[Man(a1-6)]Man(b1-4)GlcNAc(b1-4)GlcNAc
# Procedure, shortened: as §1
# [31] = target: Man(a1-3)[Man(a1-6)]Man(b1-4)GlcNAc(b1-4)[Fuc(a1-6)]GlcNAc
# Procedure, shortened: as §1
# Man(a1-6)Man = target: Man(a1-6)Man
# Procedure, shortened: as §1
# Man(b1-4)GlcNAc = target: Man(b1-4)GlcNAc
# Procedure, shortened: as §1
# MurNAc(b1-4)GlcNAc = target: MurNAc(b1-4)GlcNAc
# Procedure, shortened: as §1
binder,measurement,setting,value
B1,glycan array binding signal (z-score),[1],0.715
same,glycan array binding signal (z-score),[2],1.21
same,glycan array binding signal (z-score),[3],2.14
same,glycan array binding signal (z-score),[4],-0.211
same,glycan array binding signal (z-score),[5],-0.523
same,glycan array binding signal (z-score),[6],-0.17
same,glycan array binding signal (z-score),[7],0.018
same,glycan array binding signal (z-score),GlcNAc(b1-3)GalNAc,-0.434
same,glycan array binding signal (z-score),GlcNAc(b1-3)Man,-0.832
same,glycan array binding signal (z-score),[8],-0.732
same,glycan array binding signal (z-score),[9],-0.185
same,glycan array binding signal (z-score),[10],-0.443
same,glycan array binding signal (z-score),[11],-0.801
same,glycan array binding signal (z-score),GlcNAc(b1-4)GlcNAc,-0.339
same,glycan array binding signal (z-score),[12],-1.86
same,glycan array binding signal (z-score),[13],-0.994
same,glycan array binding signal (z-score),[14],-1.01
same,glycan array binding signal (z-score),[15],-0.188
same,glycan array binding signal (z-score),[16],0.112
same,glycan array binding signal (z-score),GlcNAc(b1-6)GalNAc,-0.793
same,glycan array binding signal (z-score),[17],-0.042
same,glycan array binding signal (z-score),Kdn(a2-3)Gal(b1-3)GalNAc,-0.518
same,glycan array binding signal (z-score),Kdn(a2-3)Gal(b1-3)GlcNAc,-0.443
same,glycan array binding signal (z-score),Kdn(a2-3)Gal(b1-4)Glc,-0.442
same,glycan array binding signal (z-score),Kdn(a2-3)Gal(b1-4)GlcNAc,0.403
same,glycan array binding signal (z-score),[18],-0.39
same,glycan array binding signal (z-score),Kdn(a2-6)Gal(b1-4)GlcNAc,1.11
same,glycan array binding signal (z-score),[19],-0.409
same,glycan array binding signal (z-score),[20],-0.472
same,glycan array binding signal (z-score),Man(a1-2)Man(a1-3)Man,0.385
same,glycan array binding signal (z-score),[21],0.404
same,glycan array binding signal (z-score),[22],-0.104
same,glycan array binding signal (z-score),[23],-0.685
same,glycan array binding signal (z-score),[24],0.466
same,glycan array binding signal (z-score),[25],-0.571
same,glycan array binding signal (z-score),[26],-0.826
same,glycan array binding signal (z-score),Man(a1-3)[Man(a1-6)]Man,0.998
same,glycan array binding signal (z-score),[27],0.811
same,glycan array binding signal (z-score),[28],-1.25
same,glycan array binding signal (z-score),[29],-0.955
same,glycan array binding signal (z-score),[30],-0.241
same,glycan array binding signal (z-score),[31],-0.543
same,glycan array binding signal (z-score),Man(a1-6)Man,-1.04
same,glycan array binding signal (z-score),Man(b1-4)GlcNAc,-1.04
same,glycan array binding signal (z-score),MurNAc(b1-4)GlcNAc,-0.784

# 2 entries from above, tab-delimited:
binder	measurement	setting	value
B1	glycan array binding signal (z-score)	Kdn(a2-3)Gal(b1-3)GalNAc	-0.518
same	glycan array binding signal (z-score)	Kdn(a2-3)Gal(b1-3)GlcNAc	-0.443
